Data on one substance can be found in article PMC7393080.

By UniProt entry, the sequences of proteins in these tests, tags left out.
UniProt P49841: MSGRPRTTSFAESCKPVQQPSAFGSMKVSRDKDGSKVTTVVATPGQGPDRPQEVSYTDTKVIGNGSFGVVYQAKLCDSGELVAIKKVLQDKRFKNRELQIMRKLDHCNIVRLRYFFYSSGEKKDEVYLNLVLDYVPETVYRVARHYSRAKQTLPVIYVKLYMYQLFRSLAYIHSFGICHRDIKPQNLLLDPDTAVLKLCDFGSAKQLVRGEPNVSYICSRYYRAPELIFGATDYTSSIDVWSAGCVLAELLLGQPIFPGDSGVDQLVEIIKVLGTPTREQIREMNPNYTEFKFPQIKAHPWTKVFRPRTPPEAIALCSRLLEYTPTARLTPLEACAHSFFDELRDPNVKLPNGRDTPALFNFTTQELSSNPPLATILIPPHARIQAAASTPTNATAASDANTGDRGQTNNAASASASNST
UniProt P08151: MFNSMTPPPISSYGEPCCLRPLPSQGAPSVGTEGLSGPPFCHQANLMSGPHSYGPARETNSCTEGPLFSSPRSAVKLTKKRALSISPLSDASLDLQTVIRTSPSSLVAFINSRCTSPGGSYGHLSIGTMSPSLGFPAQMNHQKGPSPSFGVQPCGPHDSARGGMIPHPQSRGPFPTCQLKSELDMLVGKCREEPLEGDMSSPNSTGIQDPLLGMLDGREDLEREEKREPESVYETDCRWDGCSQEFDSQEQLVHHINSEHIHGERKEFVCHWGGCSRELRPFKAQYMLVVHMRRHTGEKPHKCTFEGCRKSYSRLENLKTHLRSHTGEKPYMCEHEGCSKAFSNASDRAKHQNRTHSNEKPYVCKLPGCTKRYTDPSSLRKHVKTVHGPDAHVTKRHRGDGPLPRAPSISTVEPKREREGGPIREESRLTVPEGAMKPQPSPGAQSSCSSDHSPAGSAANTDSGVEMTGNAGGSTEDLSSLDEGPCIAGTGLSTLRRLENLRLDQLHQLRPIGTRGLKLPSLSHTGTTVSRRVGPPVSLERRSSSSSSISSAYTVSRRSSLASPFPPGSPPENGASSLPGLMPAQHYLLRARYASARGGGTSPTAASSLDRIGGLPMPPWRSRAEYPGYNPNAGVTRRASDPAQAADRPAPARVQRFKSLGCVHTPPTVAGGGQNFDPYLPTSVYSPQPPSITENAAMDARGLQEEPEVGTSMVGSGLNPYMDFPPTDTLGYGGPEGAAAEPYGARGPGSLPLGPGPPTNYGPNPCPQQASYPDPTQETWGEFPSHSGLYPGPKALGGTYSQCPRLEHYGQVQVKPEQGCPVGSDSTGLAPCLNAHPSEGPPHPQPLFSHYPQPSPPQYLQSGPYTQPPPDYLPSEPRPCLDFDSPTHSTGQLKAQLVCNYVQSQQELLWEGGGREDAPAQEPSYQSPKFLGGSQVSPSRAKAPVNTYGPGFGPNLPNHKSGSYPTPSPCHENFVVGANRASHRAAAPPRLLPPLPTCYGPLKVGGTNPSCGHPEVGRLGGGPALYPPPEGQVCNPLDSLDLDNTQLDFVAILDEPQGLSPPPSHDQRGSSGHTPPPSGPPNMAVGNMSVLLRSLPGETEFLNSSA

Results are given in words; binding and its absence hold for the method and conditions named. Binding seen in cells or lysates may run through a third protein. Some binding calls cover weakened binding; strength is not graded here.

The target in this test is GSK3β (human (endogenous in A375)) (UniProt P49841). Briefly: co-IP; Melanoma cells (shCtrl or sh/circ-GLI1) lysed in IP Lysis buffer; precipitated with GSK3β or IgG antibody, Pierce Classic IP Kit; SDS-PAGE and western blot. Background: A western blot detects proteins with antibodies after separation by electrophoresis.

As for GLI1 (from UniProt P08151 1-1106), the binding result is reported as “binds”.
